The entries are a selection whose mix differs from that of the whole data set. At the low end of the ranking the order means little.

For this test, the target named is SPI1 (UniProt P17947). The experiment in a line: DAPPL (digital affinity profiling via proximity ligation, sequencing). As to conditions: 10 mM Tris-HCl pH 7.5, 50 mM NaCl, 1 mM DTT, 4% glycerol, room temperature, 30 min; GST-TFs on glutathione beads, 16-mer random dsDNA library, 0.1% …; high values mean tight binding; double strand, one strand shown; scale: fold enrichment (6-mer frequency, TF over GST control).
In turn, TCAAGT yielded a binding signal of 1.06.

GGGAAA came in with a binding signal of 1.05.

As to AAGGTT, the binding signal was 0.952.

ACCGTT gave a binding signal of 0.891.

The sequence ATGGGG gave a binding signal of 1.11.

As for ACGAGC, the binding signal is 0.987.

GGAATG: the binding signal came out at 0.819.

AGGTTC showed a binding signal of 0.831.

TCTATC returned a binding signal of 1.22.

Sequence GACTAT gave a binding signal of 0.929.

For the sequence TTTGTT, the binding signal was determined as 1.22.

GTACGA: the binding signal was found to be 1.05.

Sequence TGCTTA returned a binding signal of 0.995.

Consider CGACGG, for which the binding signal is 0.958.

In turn, CTGTTC yielded a binding signal of 1.42.

As for ATTGTA, the binding signal was 1.09.

As to TAAACC, the binding signal amounted to 1.19.

In turn, TGATGA had a binding signal of 1.2.

For TTAGAT, the binding signal came out at 0.99.

For ACGAAA, the binding signal worked out at 1.14.

TGCACA: the binding signal came to 1.05.

The sequence ACAGTT had a binding signal of 0.775.

GGGTAT yielded a binding signal of 0.91.

In turn, AGAAAC yielded a binding signal of 0.975.

On to GCCGCT, for which the binding signal was found to be 1.12.

AGCCTA yielded a binding signal of 1.02.

Take CTGAAC: the binding signal was 1.36.

Turning to CAAAGT, the binding signal is 0.934.

In the case of GCACAA, the binding signal amounted to 1.05.

TTCATG yielded a binding signal of 1.32.

In the case of TATGTG, the binding signal came to 1.

Sequence TGGAAC came in with a binding signal of 0.977.

CCACCA displayed a binding signal of 0.971.

Sequence CCTTCA returned a binding signal of 1.36.

On to TTTCAA, for which the binding signal came to 1.32.

GGCCTT returned a binding signal of 1.18.

For GGACAT, the binding signal was found to be 1.13.

In turn, CGCTGC yielded a binding signal of 1.07.
